# In PubChem BioAssay (EPA / NIEHS):
# Amino acid sequences for entries named in this document (tags omitted). A change or cut given only in a name is not applied to a line headed by its entry.
# UniProt P19793: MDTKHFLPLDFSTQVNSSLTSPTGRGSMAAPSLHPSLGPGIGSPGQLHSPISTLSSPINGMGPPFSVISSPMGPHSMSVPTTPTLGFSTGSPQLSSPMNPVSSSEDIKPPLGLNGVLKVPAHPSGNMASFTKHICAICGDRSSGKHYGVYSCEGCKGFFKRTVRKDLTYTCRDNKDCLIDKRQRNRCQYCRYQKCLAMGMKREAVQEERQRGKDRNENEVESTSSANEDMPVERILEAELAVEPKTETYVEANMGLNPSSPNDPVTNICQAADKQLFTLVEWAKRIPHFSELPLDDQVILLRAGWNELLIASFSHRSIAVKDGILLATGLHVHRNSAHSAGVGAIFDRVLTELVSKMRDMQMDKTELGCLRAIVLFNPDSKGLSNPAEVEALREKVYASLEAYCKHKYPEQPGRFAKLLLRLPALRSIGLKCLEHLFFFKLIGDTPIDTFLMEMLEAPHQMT
# UniProt P04637, whole entry, looked up: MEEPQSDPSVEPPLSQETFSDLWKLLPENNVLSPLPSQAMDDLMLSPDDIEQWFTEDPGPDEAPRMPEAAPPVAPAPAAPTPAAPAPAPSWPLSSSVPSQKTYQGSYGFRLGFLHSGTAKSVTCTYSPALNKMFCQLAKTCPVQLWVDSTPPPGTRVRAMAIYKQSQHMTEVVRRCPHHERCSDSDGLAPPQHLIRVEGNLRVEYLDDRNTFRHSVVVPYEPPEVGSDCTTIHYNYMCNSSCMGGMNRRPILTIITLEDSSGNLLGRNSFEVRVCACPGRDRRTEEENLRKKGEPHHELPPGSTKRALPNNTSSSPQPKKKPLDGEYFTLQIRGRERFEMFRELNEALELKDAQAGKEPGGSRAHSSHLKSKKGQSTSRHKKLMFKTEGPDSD
# Where “and” joins values, the source holds several entries; their conditions need not be identical. Equal values may be shown once. This list was built around the results that the source calls inconclusive (neither active nor inactive); the mix of calls is not that of the screen. For part of these data: A potency beside an inconclusive call is a rough fit, not a confirmed value. Calls of active or inactive are those of the source. Rule for the calls: active = hit-call score of the fitted dose curve at least 0.9, where 1 is the maximum; inconclusive = response in the unintended direction; inactive = score below 0.9.
# Assays:
# [1] = target: Retinoic acid receptor RXR-alpha (Homo sapiens) (UniProt P19793); assay: OT_NURR1_NURR1RXRa_0480: Odyssey Thera (OT) 8-hour HEK293T Protein Complementation Assay for Nurr1/retinoid X receptor (RXR) (AID 2283385)
# Summary of the method: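 HEK293T cells expressing Nurr1 and RXRα fused to reporter fragments were dosed with compound for 8 hours. Complex formation was read as fluorescence intensity and analysed as gain of signal against DMSO as baseline.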
# [2] = target: Retinoic acid receptor RXR-alpha (Homo sapiens) (UniProt P19793); assay: OT_NURR1_NURR1RXRa_1440: Odyssey Thera (OT) 24-hour HEK293T Protein Complementation Assay for Nurr1/retinoid X receptor (RXR) (AID 2283386)
# Summary of the method: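 HEK293T cells were dosed with compound and read 24 h later by fluorescence intensity in a protein-fragment complementation format, where Nurr1–RXRα interaction reconstitutes a split reporter. Activity was fitted as gain of signal relative to DMSO baseline.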
# [3] = TOX21_p53_BLA_p2_viability: Viability Assessment in the Tox21 HCT-116 p53 Agonism Beta-lactamase Assay, Phase 2 (AID 2283591);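 note: actives lower the ATP signal meaning cytotoxicity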
# Summary of the method: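 HCT-116 p53-bla cells (4000/well) rested 5 h at 37C, then received compounds in DMSO (217-fold dilution) for 16 h at 37C, 5% CO2. After the CCF4 read, CellTiter-Glo was added; ATP luminescence was read after 30 min at room temperature.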
# [4] = target: Cellular tumor antigen p53 (Homo sapiens) (UniProt P04637); assay: TOX21_p53_BLA_p2_ratio: Tox21 HCT-116 p53 Agonism Beta-lactamase Assay, Ratio, Phase 2 (AID 2283592)
# Summary of the method: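 An inducible beta-lactamase reporter in HCT116 cells signals p53 pathway activation. After 16 h chemical exposure at 37C, cells load CCF4-AM substrate for 2 h at room temperature; activity is the cleaved/uncleaved emission ratio relative to DMSO.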
# [5] = TOX21_p53_BLA_p3_viability: Viability Assessment in the Tox21 HCT-116 p53 Agonism Beta-lactamase Assay, Phase 3 (AID 2283593);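 note: cells exposed to compound for 16 h before reading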
# Summary of the method: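 HCT-116 cells (4000/well) rested 5 h at 37C, then got DMSO compounds by pin tool (217-fold dilution) for 16 h at 37C, 5% CO2. After the bla read, CellTiter-Glo was added and luminescence read at 30 min, room temperature.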
# [6] = target: Cellular tumor antigen p53 (Homo sapiens) (UniProt P04637); assay: TOX21_p53_BLA_p3_ratio: Tox21 HCT-116 p53 Agonism Beta-lactamase Assay, Ratio, Phase 3 (AID 2283596)
# Summary of the method: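 HCT116 p53-bla cells (4000/well) given compound in DMSO (217-fold dilution) after 5 h, incubated 16 h at 37C. CCF4-AM substrate 2 h at room temperature; 460/530 nm emission ratio, gain fitted against DMSO.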
# [7] = TOX21_p53_BLA_p4_viability: Viability Assessment in the Tox21 HCT-116 p53 Agonism Beta-lactamase Assay, Phase 4 (AID 2283597);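 note: hits lower the luminescence signal meaning cytotoxicity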
# Summary of the method: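 Compound exposure of HCT116 cells lasts 16 h at 37C, 5% CO2, with DMSO stocks diluted 217-fold. Cellular ATP is then quantified by CellTiter-Glo luminescence after 30 min at room temperature.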
# [8] = TOX21_p53_BLA_p5_viability: Viability Assessment in the Tox21 HCT-116 p53 Agonism Beta-lactamase Assay, Phase 5 (AID 2283600)
# Summary of the method: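 Counter-readout for cytotoxicity: ATP-dependent luminescence from CellTiter-Glo, read in the beta-lactamase wells after 30 min at RT, following a 16 h compound exposure at 37C.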
# [9] = target: Cellular tumor antigen p53 (Homo sapiens) (UniProt P04637); assay: TOX21_p53_BLA_p4_ratio: Tox21 HCT-116 p53 Agonism Beta-lactamase Assay, Ratio, Phase 4 (AID 2283601)
# Summary of the method: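 HCT116 cells carrying an inducible beta-lactamase reporter were plated at 4000 cells/well, rested 5 h, then exposed to compounds in DMSO (217-fold dilution) for 16 h at 37C. CCF4-AM substrate was loaded 2 h at room temperature; 460/530 nm emission ratio scored gain-of-signal versus DMSO.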
# [10] = target: Cellular tumor antigen p53 (Homo sapiens) (UniProt P04637); assay: TOX21_p53_BLA_p5_ratio: Tox21 HCT-116 p53 Agonism Beta-lactamase Assay, Ratio, Phase 5 (AID 2283599)
# Summary of the method: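 HCT-116 cells carrying a p53-inducible beta-lactamase reporter were seeded at 4000 cells/well and dosed after 5 h with compound in DMSO (217-fold dilution). After 16 h at 37C, CCF4-AM substrate was added for 2 h, and the 460/530 nm emission ratio was scored as gain-of-signal versus DMSO.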
# [11] = Tanguay_ZF_120hpf_EYE_legacy: (Legacy) Oregon State University Tanguay Lab 120 Hour Post-fertilization zebrafish Assay for Eye Malformation (AID 2283636);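 note: binary presence or absence of eye malformation scored by brightfield in 120 hpf larvae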
# Summary of the method: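 Dechorionated wild-type Tropical 5D zebrafish embryos were exposed statically from 6 hpf, one per well, to 120 hpf at 28C in sealed, foil-covered plates with 0.64% DMSO. Eye malformation was scored present/absent by brightfield microscopy against DMSO controls.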
structure (smiles),measurement,setting,value
CC(C)C(=O)c1ccccc1,outcome,[1],inactive
same,outcome,[2],inactive
same,AC50,[3],inconclusive: 46.1 µM
same,AC50,[4],inconclusive: 46.1 µM
same,outcome,[5],inactive
same,outcome,[6],inactive
same,AC50,[7],inconclusive: 46.1 µM
same,AC50,[8],inconclusive: 31.8 µM
same,AC50,[9],inconclusive: 46.1 µM
Cc1cn([C@H]2C[C@H](N=[N+]=[N-])[C@@H](CO)O2)c(=O)[nH]c1=O,outcome,[1],inactive
same,outcome,[2],inactive
same,AC50,[3],inconclusive: 46.1 µM
same,AC50,[4],inconclusive: 46.1 µM and inconclusive: 23 µM
same,AC50,[5],inconclusive: 23 µM
same,AC50,[6],inconclusive: 23 µM
same,AC50,[10],inconclusive: 47.2 µM and inconclusive: 23 µM
same,AC50,[8],inconclusive: 46.1 µM and inconclusive: 23 µM
same,outcome,[8],inactive
same,AC50,[9],inconclusive: 85.3 µM and inconclusive: 23 µM
C1=COCCC1,outcome,[1],inactive
same,AC50,[2],inconclusive: 50 µM
same,outcome,[3],inactive
same,AC50,[5],inconclusive: 46.1 µM
same,outcome,[6],inactive
same,AC50,[7],inconclusive: 46.1 µM
O=C(OCc1ccccc1)c1ccccc1O,AC50,[1],inconclusive: 50 µM
same,AC50,[2],inconclusive: 50 µM
same,AC50,[3],inconclusive: 46.1 µM and inconclusive: 45.8 µM
same,AC50,[5],inconclusive: 45.8 µM
same,outcome,[5],inactive
same,AC50,[6],inconclusive: 45.8 µM
same,outcome,[6],inactive
same,AC50,[7],inconclusive: 45.8 µM
same,AC50,[10],inconclusive: 45.8 µM
same,AC50,[8],inconclusive: 45.8 µM
same,outcome,[8],inactive
C1CN(SSN2CCOCC2)CCO1,AC50,[1],inconclusive: 36.1 µM
same,AC50,[2],inconclusive: 50 µM
same,AC50,[3],inconclusive: 45.7 µM
same,outcome,[4],inactive
same,AC50,[7],inconclusive: 45.7 µM
same,outcome,[7],inactive
same,outcome,[10],inactive
same,AC50,[8],inconclusive: 2.78 µM
COc1ccc2cc(S(=O)(=O)N[C@H](CC(=O)N[C@H](Cc3ccc(CN4[C@H](C)CCC[C@@H]4C)cc3)C(=O)N(C)C(C)C)c3ccc4c(c3)OCO4)ccc2c1,AC50,[1],inconclusive: 85.1 µM and active: 11.1 µM
same,AC50,[2],inconclusive: 76.9 µM and inconclusive: 80.8 µM
same,AC50,[3],active: 74.2 µM
same,AC50,[4],active: 70.3 µM
same,AC50,[5],active: 84.8 µM
same,AC50,[7],active: 60.6 µM
same,AC50,[10],active: 71.9 µM
same,AC50,[8],active: 56.7 µM
same,AC50,[9],active: 72.1 µM
CCNc1cccc(C)c1,AC50,[1],inconclusive: 12.5 µM
same,outcome,[2],inactive
same,AC50,[3],inconclusive: 46.1 µM
same,AC50,[4],inconclusive: 87.3 µM
same,AC50,[5],inconclusive: 77.2 µM
same,AC50,[6],inconclusive: 46.1 µM
same,AC50,[10],inconclusive: 44.6 µM
same,AC50,[8],inconclusive: 46.1 µM
same,outcome,[8],inactive
same,AC50,[9],inconclusive: 44.6 µM
same,outcome,[11],inactive
CCCCCC1C(=O)CCC1CC(=O)OC (configuration not stated),outcome,[1],inactive
same,AC50,[2],inconclusive: 50 µM
same,AC50,[3],inconclusive: 45.7 µM
same,AC50,[5],inconclusive: 45.7 µM
same,outcome,[5],inactive
same,AC50,[6],inconclusive: 45.7 µM
same,AC50,[7],inconclusive: 46.1 µM and inconclusive: 45.7 µM
same,AC50,[10],inconclusive: 46.1 µM
same,outcome,[10],inactive
same,AC50,[8],inconclusive: 45.7 µM
same,outcome,[8],inactive
same,AC50,[9],inconclusive: 46.1 µM
COC(=O)c1ccccc1O,AC50,[1],inconclusive: 12.7 µM
same,AC50,[2],inconclusive: 1.9 µM and inconclusive: 87.1 µM
same,AC50,[3],inconclusive: 1.52 µM
same,AC50,[4],inconclusive: 46.1 µM and inconclusive: 46.2 µM
same,AC50,[5],inconclusive: 23 µM
same,AC50,[7],inconclusive: 23 µM
same,AC50,[10],inconclusive: 46.1 µM and inconclusive: 46.2 µM and inconclusive: 23 µM
same,AC50,[8],inconclusive: 46.1 µM
same,AC50,[9],inconclusive: 46.2 µM
same,outcome,[9],inactive
C=CC(C)CCCC(C)(C)O (configuration not stated),AC50,[1],inconclusive: 11.1 µM
same,outcome,[2],inactive
same,AC50,[3],inconclusive: 46 µM and inconclusive: 46.1 µM
same,AC50,[4],inconclusive: 46 µM and inconclusive: 46.1 µM
same,outcome,[5],inactive
same,outcome,[6],inactive
same,outcome,[7],inactive
same,outcome,[8],inactive
OC[C@H]1O[C@@H](O[C@H]2[C@H](O)[C@@H](O)[C@H](O)O[C@@H]2CO)[C@H](O)[C@@H](O)[C@H]1O,AC50,[1],inconclusive: 50 µM
same,AC50,[2],inconclusive: 0.77 µM
same,outcome,[3],inactive
same,AC50,[5],inconclusive: 46.1 µM
same,AC50,[6],inconclusive: 46.1 µM
same,AC50,[7],inconclusive: 88.6 µM
same,AC50,[10],inconclusive: 46.1 µM
same,AC50,[9],inconclusive: 46.1 µM

# Exported with tabs: part of the list above.
structure (smiles)	measurement	setting	value
Cc1cn([C@H]2C[C@H](N=[N+]=[N-])[C@@H](CO)O2)c(=O)[nH]c1=O	AC50	[4]	inconclusive: 46.1 µM and inconclusive: 23 µM
same	AC50	[8]	inconclusive: 46.1 µM and inconclusive: 23 µM
CCNc1cccc(C)c1	outcome	[2]	inactive
CCCCCC1C(=O)CCC1CC(=O)OC (configuration not stated)	AC50	[3]	inconclusive: 45.7 µM
same	AC50	[5]	inconclusive: 45.7 µM
C=CC(C)CCCC(C)(C)O (configuration not stated)	outcome	[5]	inactive
